From article doi:10.1101/2019.12.16.876623 (bioRxiv, 2019) come the findings set out here.

Test [1] concerns the target Mlh3-Flag (Mlh3 with an internal His6-Flag3 tag) (S. cerevisiae) (UniProt Q12083). Put plainly: co-IP.
The target in test [2] is T1, Msh4-TAP (S. cerevisiae) (UniProt P40965).
T1 sequence: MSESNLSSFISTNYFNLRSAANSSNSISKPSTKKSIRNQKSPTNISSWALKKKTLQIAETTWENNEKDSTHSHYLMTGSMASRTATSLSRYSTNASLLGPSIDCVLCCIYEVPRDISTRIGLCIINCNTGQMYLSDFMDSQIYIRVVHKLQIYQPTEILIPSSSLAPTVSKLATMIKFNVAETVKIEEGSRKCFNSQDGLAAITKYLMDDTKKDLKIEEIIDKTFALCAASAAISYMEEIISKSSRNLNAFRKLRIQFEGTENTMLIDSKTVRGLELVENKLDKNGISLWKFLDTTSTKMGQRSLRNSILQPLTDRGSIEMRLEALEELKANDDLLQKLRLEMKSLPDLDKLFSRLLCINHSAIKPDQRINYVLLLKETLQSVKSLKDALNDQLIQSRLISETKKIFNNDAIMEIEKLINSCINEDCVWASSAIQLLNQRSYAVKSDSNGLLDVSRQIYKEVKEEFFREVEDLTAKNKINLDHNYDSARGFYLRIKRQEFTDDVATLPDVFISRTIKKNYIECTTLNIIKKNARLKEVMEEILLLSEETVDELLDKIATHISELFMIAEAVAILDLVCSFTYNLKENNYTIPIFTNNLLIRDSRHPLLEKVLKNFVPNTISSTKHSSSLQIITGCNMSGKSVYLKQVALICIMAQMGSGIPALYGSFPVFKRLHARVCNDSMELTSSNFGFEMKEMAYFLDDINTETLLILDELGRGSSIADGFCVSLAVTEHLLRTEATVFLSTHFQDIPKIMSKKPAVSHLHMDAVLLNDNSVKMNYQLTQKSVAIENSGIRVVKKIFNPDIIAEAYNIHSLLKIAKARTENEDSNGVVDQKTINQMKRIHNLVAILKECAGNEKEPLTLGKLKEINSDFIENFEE
The experiment in a line: co-IP.

The target of test [3] is T2, Exo1-TAP (S. cerevisiae) (UniProt P39875).
T2 sequence: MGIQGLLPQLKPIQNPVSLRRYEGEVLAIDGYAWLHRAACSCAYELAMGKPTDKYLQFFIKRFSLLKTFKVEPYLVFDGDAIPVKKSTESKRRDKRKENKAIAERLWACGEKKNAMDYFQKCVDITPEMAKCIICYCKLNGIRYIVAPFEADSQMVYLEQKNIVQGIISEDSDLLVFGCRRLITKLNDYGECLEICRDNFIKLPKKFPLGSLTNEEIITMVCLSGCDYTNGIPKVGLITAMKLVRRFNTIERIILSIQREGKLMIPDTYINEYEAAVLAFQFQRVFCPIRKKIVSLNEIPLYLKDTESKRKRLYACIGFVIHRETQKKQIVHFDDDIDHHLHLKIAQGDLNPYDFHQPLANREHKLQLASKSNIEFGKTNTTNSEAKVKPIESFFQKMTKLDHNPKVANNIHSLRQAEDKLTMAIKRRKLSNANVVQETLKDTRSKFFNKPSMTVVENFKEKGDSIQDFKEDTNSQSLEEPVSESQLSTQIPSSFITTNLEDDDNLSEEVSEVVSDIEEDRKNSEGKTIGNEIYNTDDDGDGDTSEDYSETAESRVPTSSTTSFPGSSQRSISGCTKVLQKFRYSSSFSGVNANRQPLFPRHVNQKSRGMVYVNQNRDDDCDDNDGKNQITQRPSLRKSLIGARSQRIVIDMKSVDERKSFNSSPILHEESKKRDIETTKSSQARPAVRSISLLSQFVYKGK
Put plainly: co-IP.

Test [4] addresses T3, Cdc5-TAP (S. cerevisiae) (UniProt P32562).
T3 sequence: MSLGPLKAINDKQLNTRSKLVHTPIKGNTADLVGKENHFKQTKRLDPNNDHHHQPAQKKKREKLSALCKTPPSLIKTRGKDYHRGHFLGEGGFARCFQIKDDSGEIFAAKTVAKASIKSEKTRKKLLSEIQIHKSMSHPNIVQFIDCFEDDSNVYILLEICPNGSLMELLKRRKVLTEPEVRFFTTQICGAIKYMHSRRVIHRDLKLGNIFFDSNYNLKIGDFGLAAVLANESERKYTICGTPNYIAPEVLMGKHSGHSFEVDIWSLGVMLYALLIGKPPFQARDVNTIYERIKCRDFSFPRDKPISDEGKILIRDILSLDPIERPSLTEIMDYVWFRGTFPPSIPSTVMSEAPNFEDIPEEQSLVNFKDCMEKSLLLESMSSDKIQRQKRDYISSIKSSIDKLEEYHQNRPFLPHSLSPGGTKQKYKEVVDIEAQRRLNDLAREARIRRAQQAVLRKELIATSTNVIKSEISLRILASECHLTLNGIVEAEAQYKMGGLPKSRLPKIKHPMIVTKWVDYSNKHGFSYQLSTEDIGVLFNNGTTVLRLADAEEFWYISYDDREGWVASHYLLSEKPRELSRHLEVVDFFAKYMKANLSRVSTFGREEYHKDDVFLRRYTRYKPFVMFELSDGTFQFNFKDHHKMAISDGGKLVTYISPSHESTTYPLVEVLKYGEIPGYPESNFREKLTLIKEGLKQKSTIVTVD
The experiment in a line: co-IP.

Test [5] deals with T4, GAL4-BD-Exo1 (S. cerevisiae) (UniProt P39875).
T4 sequence: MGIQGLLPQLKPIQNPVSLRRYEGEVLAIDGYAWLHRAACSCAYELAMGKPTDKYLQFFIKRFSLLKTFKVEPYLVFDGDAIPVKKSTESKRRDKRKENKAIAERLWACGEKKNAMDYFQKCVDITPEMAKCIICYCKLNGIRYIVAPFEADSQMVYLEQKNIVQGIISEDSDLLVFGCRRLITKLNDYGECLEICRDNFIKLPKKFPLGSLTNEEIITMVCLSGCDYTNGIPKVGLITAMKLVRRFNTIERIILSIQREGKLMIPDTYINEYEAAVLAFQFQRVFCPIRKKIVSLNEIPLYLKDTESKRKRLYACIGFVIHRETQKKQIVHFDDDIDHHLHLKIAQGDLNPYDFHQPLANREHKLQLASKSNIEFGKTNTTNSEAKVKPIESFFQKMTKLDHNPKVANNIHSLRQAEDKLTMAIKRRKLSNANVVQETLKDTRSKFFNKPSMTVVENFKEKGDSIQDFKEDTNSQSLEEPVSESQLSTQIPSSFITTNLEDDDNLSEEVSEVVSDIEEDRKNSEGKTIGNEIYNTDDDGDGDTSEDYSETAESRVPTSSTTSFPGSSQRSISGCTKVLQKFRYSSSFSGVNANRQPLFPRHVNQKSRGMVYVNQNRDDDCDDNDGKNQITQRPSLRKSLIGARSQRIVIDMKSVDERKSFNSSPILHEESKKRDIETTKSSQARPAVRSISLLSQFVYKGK
Put plainly: two-hybrid.

Test [6] deals with T5, GAL4-BD-Exo1-cid (R570E I572D G574A) (S. cerevisiae) (UniProt P39875).
T5 sequence: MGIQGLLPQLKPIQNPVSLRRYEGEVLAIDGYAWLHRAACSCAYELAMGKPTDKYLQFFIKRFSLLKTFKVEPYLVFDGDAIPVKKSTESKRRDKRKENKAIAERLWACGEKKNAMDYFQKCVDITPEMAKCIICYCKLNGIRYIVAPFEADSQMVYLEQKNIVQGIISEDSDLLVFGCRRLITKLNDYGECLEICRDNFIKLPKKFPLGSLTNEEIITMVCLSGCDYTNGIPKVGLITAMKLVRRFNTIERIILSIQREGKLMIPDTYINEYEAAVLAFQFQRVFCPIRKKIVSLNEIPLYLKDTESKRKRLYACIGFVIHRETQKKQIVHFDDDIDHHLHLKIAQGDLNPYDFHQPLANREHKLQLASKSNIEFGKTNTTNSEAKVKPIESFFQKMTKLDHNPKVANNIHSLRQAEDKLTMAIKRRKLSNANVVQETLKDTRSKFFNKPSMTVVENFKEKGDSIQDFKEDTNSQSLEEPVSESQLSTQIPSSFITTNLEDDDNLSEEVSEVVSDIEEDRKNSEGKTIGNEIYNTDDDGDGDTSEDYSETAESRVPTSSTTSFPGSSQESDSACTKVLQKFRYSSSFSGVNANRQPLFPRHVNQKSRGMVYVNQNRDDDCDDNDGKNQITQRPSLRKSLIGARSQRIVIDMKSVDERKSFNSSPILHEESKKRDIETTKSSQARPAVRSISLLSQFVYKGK
Put plainly: two-hybrid.

In test [7] the target is T6, GAL4-BD-Exo1 (531 to 591) (S. cerevisiae) (UniProt P39875).
T6 sequence: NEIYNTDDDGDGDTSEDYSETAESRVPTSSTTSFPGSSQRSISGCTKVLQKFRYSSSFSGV
Put plainly: two-hybrid.

Results are given in words; binding and its absence hold for the method and conditions named. For some of these results: Binding seen in cells or lysates may run through a third protein. Some results given as binding are weak or reduced against the parent protein; the word gives no strength. Sequences can lack the tags named with a protein.

B1: Mlh3-Flag (Mlh3 with an internal His6-Flag3 tag) (protein, UniProt Q12083 1-715)
chain: MSQHIRKLDSDVSERLKSQACTVSLASAVREIVQNSVDAHATTIDVMIDLPNLSFAVYDDGIGLTRSDLNILATQNYTSKIRKMNDLVTMKTYGYRGDALYSISNVSNLFVCSKKKDYNSAWMRKFPSKSVMLSENTILPIDPFWKICPWSRTKSGTVVIVEDMLYNLPVRRRILKEEPPFKTFNTIKADMLQILVMHPMISLNVQYTDKLRINTEVLFRSKNITEGLTKHQQMSQVLRNVFGAIIPPDMLKKVSLKFNEYQIEGIISKMPVGLKDLQFIYINGRRYADSAFQGYVDSLFQAQDFGEKGMSLLKTKSVGKPYRSHPVFILDVRCPQTIDDLLQDPAKKIVKPSHIRTIEPLIVKTIRSFLTFQGYLTPDKSDSSFEIVNCSQKTATLPDSRIQISKRNQVLNSKMKIARINSYIGKPAVNGCRINNSTINYEKIKNIRIDGQKSRLRNKLSSRPYDSGFTEDYDSIGKTITDFSISRSVLAKYEVINQVDKKFILIRCLDQSNCPLLVLVDQHACDERIRLEELFYSLLTEVVTGTFVARDLKDCCIEVDRTEADLFKHYQSEFKKWGIGYETIEGTMETSLLEIKTLPEMLTSKYNGDKDYLKMVLLQHAHDLKDFKKLPMDLSHFENYTSVDKLYWWKYSSCVPTVFHEILNSKACRSAVMFGDELTRQECIILISKLSRCHNPFECAHGRPSMVPIAELK
B1: the binding entry in test [1] was “no binding”.

B2: Mlh1-HA (protein, UniProt P38920 1-769)
chain: MSLRIKALDASVVNKIAAGEIIISPVNALKEMMENSIDANATMIDILVKEGGIKVLQITDNGSGINKADLPILCERFTTSKLQKFEDLSQIQTYGFRGEALASISHVARVTVTTKVKEDRCAWRVSYAEGKMLESPKPVAGKDGTTILVEDLFFNIPSRLRALRSHNDEYSKILDVVGRYAIHSKDIGFSCKKFGDSNYSLSVKPSYTVQDRIRTVFNKSVASNLITFHISKVEDLNLESVDGKVCNLNFISKKSISPIFFINNRLVTCDLLRRALNSVYSNYLPKGNRPFIYLGIVIDPAAVDVNVHPTKREVRFLSQDEIIEKIANQLHAELSAIDTSRTFKASSISTNKPESLIPFNDTIESDRNRKSLRQAQVVENSYTTANSQLRKAKRQENKLVRIDASQAKITSFLSSSQQFNFEGSSTKRQLSEPKVTNVSHSQEAEKLTLNESEQPRDANTINDNDLKDQPKKKQKLGDYKVPSIADDEKNALPISKDGYIRVPKERVNVNLTSIKKLREKVDDSIHRELTDIFANLNYVGVVDEERRLAAIQHDLKLFLIDYGSVCYELFYQIGLTDFANFGKINLQSTNVSDDIVLYNLLSEFDELNDDASKEKIISKIWDMSSMLNEYYSIELVNDGLDNDLKSVKLKSLPLLLKGYIPSLVKLPFFIYRLGKEVDWEDEQECLDGILREIALLYIPDMVPKVDTSDASLSEDEKAQFINRKEHISSLLEHVLFPCIKRRFLAPRHILKDVVEIANLPDLYKVFERC
For B2, the figures for the binding entry in test [2], in test [3] and in test [4] were “binds weakly”, “binds” and “binds”, respectively.

B3: GAL4-AD-Cdc5-PBD (domain or fragment, UniProt P32562 340-705)
chain: TFPPSIPSTVMSEAPNFEDIPEEQSLVNFKDCMEKSLLLESMSSDKIQRQKRDYISSIKSSIDKLEEYHQNRPFLPHSLSPGGTKQKYKEVVDIEAQRRLNDLAREARIRRAQQAVLRKELIATSTNVIKSEISLRILASECHLTLNGIVEAEAQYKMGGLPKSRLPKIKHPMIVTKWVDYSNKHGFSYQLSTEDIGVLFNNGTTVLRLADAEEFWYISYDDREGWVASHYLLSEKPRELSRHLEVVDFFAKYMKANLSRVSTFGREEYHKDDVFLRRYTRYKPFVMFELSDGTFQFNFKDHHKMAISDGGKLVTYISPSHESTTYPLVEVLKYGEIPGYPESNFREKLTLIKEGLKQKSTIVTVD
B3: the binding result in test [5] was “binds”; in test [6], “no binding”; in test [7], “binds”.
